{"source": "PubChem BioAssay AID602196 (INSERM, 2012)", "assay": "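Genes whose knock-down alters cisplatin killing of lung cancer cells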", "system": "human A549 lung cancer cells", "reagents": "siRNA pair against human genes", "duration": "48 h transfection before cisplatin; time from cisplatin to read-out not stated", "challenge": "cisplatin at a dose killing half of control-siRNA cells; exact dose and duration not given", "measurement": "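Shift in cisplatin death relative to control siRNA, from -50 (all cells die) to +50 (no cells die); siRNAs harmful on their own scored 0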", "scale": "two-siRNA summed score (-2 to +2): higher = both siRNAs protect from cisplatin killing; -2 means both sensitise; mean protection from cisplatin (shift in death): higher = protection from cisplatin killing", "rule for the call": "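siRNAs harmful alone (LDH or WST-1) get 0; others get +1 for less and -1 for more cisplatin killing; genes are active when the two siRNAs give the same sign, summing to ±2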", "meaning of the calls": "active = both siRNAs shift cisplatin killing the same way; inactive = no consistent shift, or siRNA harmful alone", "note": "This is an unselected part of about 23,000 deposited reagents. 455 of them (2%) were called active. 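Active includes both protection and sensitisation; some change values fall well beyond the stated -50 to +50 range.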 Entries without a mark were called inactive. Not all columns of the deposit are shown. Reagent sequences are not shown. Not stated in the record: the amount of reagent."}
{"target": "LRRC10", "two-siRNA summed score (-2 to +2)": 1, "mean protection from cisplatin (shift in death) (%)": 8.2}
{"target": "PDZD11", "two-siRNA summed score (-2 to +2)": 0, "mean protection from cisplatin (shift in death) (%)": 13.2}
{"target": "LOC401895", "two-siRNA summed score (-2 to +2)": 1, "mean protection from cisplatin (shift in death) (%)": 13.4}
{"target": "TRARG1", "two-siRNA summed score (-2 to +2)": 1, "mean protection from cisplatin (shift in death) (%)": 6.1}
{"target": "ANKRD34B", "two-siRNA summed score (-2 to +2)": 0, "mean protection from cisplatin (shift in death) (%)": 2.5}
{"target": "DPPA3", "two-siRNA summed score (-2 to +2)": 0, "mean protection from cisplatin (shift in death) (%)": 5.2}
{"target": "CLDN1", "two-siRNA summed score (-2 to +2)": 1, "mean protection from cisplatin (shift in death) (%)": 8.6}
{"target": "CD40", "two-siRNA summed score (-2 to +2)": 0, "mean protection from cisplatin (shift in death) (%)": 3.4}

The list goes on; the last 2 above are carried over.
{"target": "CLDN1", "two-siRNA summed score (-2 to +2)": 1, "mean protection from cisplatin (shift in death) (%)": 8.6}
{"target": "CD40", "two-siRNA summed score (-2 to +2)": 0, "mean protection from cisplatin (shift in death) (%)": 3.4}
{"target": "HSPG2", "two-siRNA summed score (-2 to +2)": -1, "mean protection from cisplatin (shift in death) (%)": -9.5}
{"target": "RARRES2", "two-siRNA summed score (-2 to +2)": 0, "mean protection from cisplatin (shift in death) (%)": 4.3}
{"target": "ATG9B", "two-siRNA summed score (-2 to +2)": 0, "mean protection from cisplatin (shift in death) (%)": -2}
{"target": "PIGP", "two-siRNA summed score (-2 to +2)": 0, "mean protection from cisplatin (shift in death) (%)": 4.1}
{"target": "TAGLN2", "two-siRNA summed score (-2 to +2)": -1, "mean protection from cisplatin (shift in death) (%)": -18.9}
{"target": "LINC01619", "two-siRNA summed score (-2 to +2)": 0, "mean protection from cisplatin (shift in death) (%)": 9.2}
{"target": "LTF", "two-siRNA summed score (-2 to +2)": 0, "mean protection from cisplatin (shift in death) (%)": -3.9}
{"target": "ITPRIPL1", "two-siRNA summed score (-2 to +2)": 0, "mean protection from cisplatin (shift in death) (%)": 9.9}
{"target": "TMOD4", "two-siRNA summed score (-2 to +2)": 0, "mean protection from cisplatin (shift in death) (%)": 2.8}
{"target": "XRCC2", "two-siRNA summed score (-2 to +2)": 0, "mean protection from cisplatin (shift in death) (%)": 8.4}
{"target": "DLEU2", "two-siRNA summed score (-2 to +2)": 1, "mean protection from cisplatin (shift in death) (%)": 13.9}
{"target": "TRIM3", "two-siRNA summed score (-2 to +2)": 0, "mean protection from cisplatin (shift in death) (%)": 4}
{"target": "ACAP2", "two-siRNA summed score (-2 to +2)": 0, "mean protection from cisplatin (shift in death) (%)": -4}
